Reference: PMC5663849
No constants are given. Whether binding was seen depends on the method and setting. In cells and extracts the contact can be indirect. Some binding calls cover weakened binding; strength is not graded here.

By UniProt entry, the sequences of proteins in these tests, tags left out. Residues count along the entry.
UniProt P20491, residues 19-86: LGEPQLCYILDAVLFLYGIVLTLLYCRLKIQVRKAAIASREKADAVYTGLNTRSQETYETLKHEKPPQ
UniProt O08586: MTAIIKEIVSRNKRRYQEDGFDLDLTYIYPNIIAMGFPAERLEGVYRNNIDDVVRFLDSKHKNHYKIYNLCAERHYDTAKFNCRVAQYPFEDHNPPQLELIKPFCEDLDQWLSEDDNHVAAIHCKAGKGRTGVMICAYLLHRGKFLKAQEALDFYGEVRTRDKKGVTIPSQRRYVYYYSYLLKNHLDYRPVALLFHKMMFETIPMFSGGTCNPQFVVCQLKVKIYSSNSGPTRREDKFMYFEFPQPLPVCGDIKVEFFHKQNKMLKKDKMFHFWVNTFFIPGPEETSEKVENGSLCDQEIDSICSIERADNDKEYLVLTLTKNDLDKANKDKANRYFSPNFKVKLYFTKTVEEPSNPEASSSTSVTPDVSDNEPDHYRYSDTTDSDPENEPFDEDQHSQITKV
UniProt P29351: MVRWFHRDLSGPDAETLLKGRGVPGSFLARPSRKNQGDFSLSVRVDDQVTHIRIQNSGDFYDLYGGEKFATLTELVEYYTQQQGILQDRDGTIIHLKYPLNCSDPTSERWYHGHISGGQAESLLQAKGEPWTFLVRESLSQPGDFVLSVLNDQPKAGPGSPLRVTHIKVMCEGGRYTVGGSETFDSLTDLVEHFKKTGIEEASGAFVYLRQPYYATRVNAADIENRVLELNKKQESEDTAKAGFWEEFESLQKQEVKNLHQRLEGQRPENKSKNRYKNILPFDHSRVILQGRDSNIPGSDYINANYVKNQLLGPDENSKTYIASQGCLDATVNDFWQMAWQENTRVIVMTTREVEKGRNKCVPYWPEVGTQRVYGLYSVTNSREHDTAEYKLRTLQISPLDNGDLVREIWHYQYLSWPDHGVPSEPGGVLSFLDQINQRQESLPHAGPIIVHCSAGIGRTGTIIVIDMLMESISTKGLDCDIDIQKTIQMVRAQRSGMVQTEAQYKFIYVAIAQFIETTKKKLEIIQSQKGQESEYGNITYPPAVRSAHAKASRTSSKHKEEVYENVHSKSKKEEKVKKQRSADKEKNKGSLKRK

Target: FcεRI γ-chain (mouse (endogenous in BMDCs)) (UniProt P20491)
Assay: co-IP; WT mouse BMDCs treated with curdlan or dZym (50 µg/mL), harvested at indicated time points; lysates precleared with protein A/G beads (4°C, 2 h), incubated with anti-FcRγ Ab at 4°C for 16 h, protein A/G beads 2 h; SDS-PAGE and Western blot for SHP-1, SHP-2, SHIP-1, PTEN

| binding | Substance |
| --- | --- |
| binds | PTEN (phosphatase and tensin homolog) (from UniProt O08586 1-403) (enzyme) |
| binds | SH2 domain-containing phosphatase-1 (from UniProt P29351 1-595) (enzyme) |
